Plain letter strings leave the end groups untold. Some peptides are written in HELM: one residue between dots, names in brackets for other building blocks, links after the first $.
Assay: peptide synthesis
Conditions: whole synthesis, HPLC and mass spectrometry

FIAWLVRGRG
final HPLC purity: >98%

PEPTIDE1{F.I.A.W.L.V.K.G.R.[am]}$$$$V2.0
final HPLC purity: >98%

From patent publication US9040481B2 (The General Hospital Corporation, priority 2010, dated 2015)
